US12364702B2, “Highly active sting protein agonist compound” (ADLAI NORTYE BIOPHARMA CO., LTD., priority 2018, dated 2025)
At least one structure is not confirmed: it was looked up by name or label, or the drawing left a doubt.

Chains of the proteins cited; added tags and fusions are not shown.
UniProt Q86WV6, whole entry R71H/G230A/R293Q: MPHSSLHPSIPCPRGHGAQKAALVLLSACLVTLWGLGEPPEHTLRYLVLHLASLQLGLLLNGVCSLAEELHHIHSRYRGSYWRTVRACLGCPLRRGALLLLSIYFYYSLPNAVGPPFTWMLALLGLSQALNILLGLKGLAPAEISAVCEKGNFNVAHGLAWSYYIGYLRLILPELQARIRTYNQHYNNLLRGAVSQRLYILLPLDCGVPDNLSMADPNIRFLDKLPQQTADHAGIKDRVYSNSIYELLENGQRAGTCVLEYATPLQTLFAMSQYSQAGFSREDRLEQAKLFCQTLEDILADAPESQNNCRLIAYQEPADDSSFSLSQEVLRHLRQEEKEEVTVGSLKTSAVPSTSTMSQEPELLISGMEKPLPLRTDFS

Assays:
STING HAQ variant = biological target: T1, STING HAQ variant (Homo sapiens, UniProt Q86WV6, G230A/R293Q/R71H); test: SEAP reporter assay in HEK-Blue ISG KO-STING cells transfected with STING HAQ variant (Method 1); format: cell-based; conditions: 1 ng STING vector, compound 5 uM, 24 h, SEAP signal vs 0.5% DMSO
T1 construct: host or cells: HEK-Blue ISG KO-STING cells (Invivogen, hkb-kostg)
Text: (§1) Activation of STING can be determined using a SEAP reporter assay in HEK-Blue™ ISG KO-STING cells (Invivogen, cat #hkb-kostg) transfected with plasmids expressing STING variants (WT & HAQ) (referred to WO2017/175147A1). STING variants (WT & HAQ) vector were constructed based on STING-232H vector (Origene, RC208418). GFP vector (VT2069) was bought from Youbio. The detailed protocol as follows: HEK-Blue™ ISG KO-STING cells were harvest and seeding into 96 well plate, the final cell number was 0.8×10^5 cells/well. Transfections were prepared using Lipofectamine 2000 (Invitrogen, Cat #11668-027) following the manufacturer's instructions (Lipo2000/DNA=1/10), 20 ul of transfection suspension containing 1 ng STING vector was added to cell culture plate and incubated at 37° C., 5% CO2 for 24 hours. After 24 hours' incubation, compounds were added at proper concentration, and the final DMSO concentration was 0.5%. After 24 h incubation, the supernatant was collected to detect SEAP signal using Great EscAPe SEAP chemiluminescence KIT (Clontech, cat #631738) and cells were collected to detect cell viability using CellTiter-Glo Luminescent Cell Viability Assay (Promega, cat #G7573) following the manufacturer's instructions. The data were described by the ratio of the stimulating signal of compounds to 0.5% DMSO.

STING WT variant = biological target: T2, STING WT variant (Homo sapiens, UniProt Q86WV6); test: SEAP reporter assay in HEK-Blue ISG KO-STING cells transfected with STING WT variant (Method 1); format: cell-based; conditions: 1 ng STING vector, compound 2.5 uM, 24 h, SEAP signal vs 0.5% DMSO
T2 construct: host or cells: HEK-Blue ISG KO-STING cells (Invivogen, hkb-kostg)
Text: as §1

Compound	Fold change related to DMSO control HAQ (STING HAQ variant)	Fold change related to DMSO control WT (STING WT variant)
CCn1nc(C)cc1C(=O)Nc1nc2cc(C(N)=O)cc(OCCCOC)c2n1CCC[C@H]1COc2cc(-c3nn[nH]n3)cc3nc(NC(=O)c4cc(C)nn4CC)n1c23 [Example 26, (S)-2-(1-ethyl-3-methyl-1H-pyrazole-5-carboxamido)-1-(3-(2-(1-ethyl-3-methyl-1H-pyrazole-5-carboxamido)-7-(2H-tetrazol-5-yl)-3,4-dihydro-5-oxa-1,2a-diazaacenaphthylen-3-yl)propyl)-7-(3-methoxypropoxy)-1H-benzo[d]imidazole-5-carboxamide]	2.36	1.03
CCn1nc(C)cc1C(=O)Nc1nc2cc(C(N)=O)cc(OCCCN(C)C(=O)CN(C)C)c2n1CCC[C@H]1COc2cc(C(N)=O)cc3nc(NC(=O)c4cc(C)nn4CC)n1c23 [Example 28, (S)-3-(3-(5-carbamoyl-7-(3-(2-(dimethylamino)-N-methylacetamido)propoxy)-2-(1-ethyl-3-methyl-1H-pyrazole-5-carboxamido)-1H-benzo[d]imidazol-1-yl)propyl)-2-(1-ethyl-3-methyl-1H-pyrazole-5-carboxamido)-3,4-dihydro-5-oxa-1,2a-diazaacenaphthylene-7-carboxamide]	22.84	2.05
